Data taken from paper PMC8092259.
No constants are given. Whether binding was seen depends on the method and setting. In cells and extracts the contact can be indirect. Sequences can lack the tags named with a protein.

Amino acid sequences for entries named in this document (tags omitted).
UniProt Q14258: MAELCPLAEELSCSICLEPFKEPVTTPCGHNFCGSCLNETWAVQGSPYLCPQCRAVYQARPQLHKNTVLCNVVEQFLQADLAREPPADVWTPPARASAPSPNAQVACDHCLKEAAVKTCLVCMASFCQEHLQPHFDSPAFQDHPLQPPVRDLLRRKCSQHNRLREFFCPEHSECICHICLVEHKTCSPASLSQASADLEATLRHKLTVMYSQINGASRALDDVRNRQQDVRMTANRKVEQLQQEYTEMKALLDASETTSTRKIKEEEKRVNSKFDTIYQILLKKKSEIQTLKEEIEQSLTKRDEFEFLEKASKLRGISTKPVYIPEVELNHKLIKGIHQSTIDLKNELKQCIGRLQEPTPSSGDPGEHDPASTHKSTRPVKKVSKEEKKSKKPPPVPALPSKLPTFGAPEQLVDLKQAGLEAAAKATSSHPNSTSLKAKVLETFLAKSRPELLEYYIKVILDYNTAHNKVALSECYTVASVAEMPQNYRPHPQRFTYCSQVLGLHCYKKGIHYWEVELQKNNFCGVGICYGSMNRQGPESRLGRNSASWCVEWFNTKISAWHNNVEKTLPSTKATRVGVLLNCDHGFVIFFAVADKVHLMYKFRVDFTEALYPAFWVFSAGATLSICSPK

Molecular target: T1, FLAG-tagged JCV large T antigen (TAg) (JC virus (JCV)) (UniProt P03072)
T1 sequence: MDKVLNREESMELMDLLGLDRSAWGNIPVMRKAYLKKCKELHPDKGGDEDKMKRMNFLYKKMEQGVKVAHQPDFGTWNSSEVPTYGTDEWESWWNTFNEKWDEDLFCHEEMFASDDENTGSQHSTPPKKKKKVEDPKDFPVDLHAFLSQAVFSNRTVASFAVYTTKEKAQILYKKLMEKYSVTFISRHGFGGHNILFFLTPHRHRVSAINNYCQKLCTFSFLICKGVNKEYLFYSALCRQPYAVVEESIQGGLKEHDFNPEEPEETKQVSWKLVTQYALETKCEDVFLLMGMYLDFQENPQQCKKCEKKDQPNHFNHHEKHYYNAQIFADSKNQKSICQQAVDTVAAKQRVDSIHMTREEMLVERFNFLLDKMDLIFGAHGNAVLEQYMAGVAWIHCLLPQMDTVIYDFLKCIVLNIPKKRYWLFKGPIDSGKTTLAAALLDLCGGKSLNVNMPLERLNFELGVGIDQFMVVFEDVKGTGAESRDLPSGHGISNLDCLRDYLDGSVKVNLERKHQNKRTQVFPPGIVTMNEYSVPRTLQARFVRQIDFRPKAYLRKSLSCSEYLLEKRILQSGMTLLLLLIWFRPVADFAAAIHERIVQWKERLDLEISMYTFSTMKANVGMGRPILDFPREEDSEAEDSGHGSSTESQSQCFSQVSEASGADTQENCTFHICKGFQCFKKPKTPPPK
Test: co-IP

endogenous TRIM25 (HEK 293T cells) (from UniProt Q14258 1-630)
binding: no binding
